Results deposited as PubChem BioAssay AID504808 (Drosophila RNAi Screening Center, 2011).
The deposit covers about 21,000 reagents; shown is an unselected part of those that have a named target and a result. Over the whole deposit, 18 (0.084%) are marked active. 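Raw counts without plate normalisation, one of two replicates; the ratio scores behind the calls were not deposited.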 Reagents against one gene are numbered here. Names joined by + are all predicted targets of the reagent. Not given: the amount of reagent, the time to read-out.

Test: 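Genes whose loss lifts activity of an E2F-responsive reporter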 (primary screen)
Cell system: Drosophila S2 cells
Reagents: long dsRNA against Drosophila genes
Detection: 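Dual luciferase plate measurements; E2F-specific signal taken as firefly over Renilla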
Scale: E2F firefly: higher = more E2F reporter activity; Renilla normaliser: higher = more normaliser reporter signal
Hit rule: 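Called active if the normalised E2F reporter went up by over 50%; the cutoff is arbitrary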

| target gene | reagent | E2F firefly, rep 1 | Renilla normaliser, rep 1 | outcome |
| --- | --- | --- | --- | --- |
| CG5767 (GeneID 37055) | 1 | 1.43e5 | 5132 | inactive |
| PhKgamma (GeneID 32120) | 1 | 8159 | 720 | inactive |
| CG13248 (GeneID 40254) | 1 | 1.52e5 | 7733 | inactive |
| Prosbeta6 (GeneID 39855) | 1 | 64269 | 3909 | inactive |
| CG33170 (GeneID 326267) | 1 | 1.46e5 | 7809 | inactive |
| ics (GeneID 34774) | 1 | 85464 | 3218 | inactive |
| Jhbp1 (GeneID 40613) | 1 | 1.28e5 | 5550 | inactive |
| CG8152 (GeneID 36696) | 1 | 1.02e5 | 3585 | inactive |
| PGRP-LE (GeneID 32534) | 1 | 8150 | 732 | inactive |
| CG34006 (retired record) (GeneID 3885652) | 1 | 79416 | 2262 | inactive |
| CG13197 (GeneID 36253) | 1 | 1.09e5 | 4469 | inactive |
| Pglym78 (GeneID 43447) | 1 | 1915 | 1124 | inactive |
| CG13314 (GeneID 39030) | 1 | 1.04e5 | 4451 | inactive |
| meru (GeneID 39727) | 1 | 1.34e5 | 4811 | inactive |
| meru (GeneID 39727) | 2 | 67775 | 9707 | inactive |
| meru (GeneID 39727) | 3 | 1.56e5 | 8145 | inactive |
| CG7550 (GeneID 38901) | 1 | 1.04e5 | 4240 | inactive |
| mRpL18 (GeneID 36406) | 1 | 1.02e5 | 3654 | inactive |
| Slbp (GeneID 43448) | 1 | 1.35e5 | 6999 | inactive |
| Pex11ab (GeneID 36758) | 1 | 1.26e5 | 4769 | inactive |
| CG42404 (GeneID 41842) | 1 | 1.35e5 | 5150 | inactive |
| CG15483 (GeneID 34687) | 1 | 95969 | 3934 | inactive |
| capu (GeneID 33611) | 1 | 1.33e5 | 5519 | inactive |
| capu (GeneID 33611) | 2 | 1.32e5 | 5518 | inactive |
| capu (GeneID 33611) | 3 | 1.57e5 | 5038 | inactive |
| capu (GeneID 33611) | 4 | 92802 | 4421 | inactive |
| MED14 (GeneID 38073) | 1 | 44811 | 2950 | inactive |
| Ip6k (GeneID 37465) | 1 | 76814 | 3531 | inactive |
| Polr2I (GeneID 41741) | 1 | 76750 | 5840 | inactive |
| CG15373 (GeneID 32784) | 1 | 1.68e5 | 6867 | inactive |
| CG14453 (GeneID 40484) | 1 | 1.33e5 | 7281 | inactive |
| Pvf2 (GeneID 33994) | 1 | 54369 | 2597 | inactive |
| Pvf2 (GeneID 33994) | 2 | 1.52e5 | 4931 | inactive |
| CG13202 (GeneID 36222) | 1 | 97941 | 4246 | inactive |
| Rab9 (GeneID 35221) | 1 | 1.03e5 | 4443 | inactive |
| Prosbeta5R1 (GeneID 37690) | 1 | 1.04e5 | 4501 | inactive |
| ova (GeneID 34362) | 1 | 86752 | 3435 | inactive |
| Mec2 (GeneID 32905) | 1 | 1.44e5 | 4483 | inactive |

Reprinted from the listing (12 entries):
| target gene | reagent | E2F firefly, rep 1 | Renilla normaliser, rep 1 | outcome |
| --- | --- | --- | --- | --- |
| CG13314 (GeneID 39030) | 1 | 1.04e5 | 4451 | inactive |
| meru (GeneID 39727) | 1 | 1.34e5 | 4811 | inactive |
| meru (GeneID 39727) | 2 | 67775 | 9707 | inactive |
| meru (GeneID 39727) | 3 | 1.56e5 | 8145 | inactive |
| CG7550 (GeneID 38901) | 1 | 1.04e5 | 4240 | inactive |
| mRpL18 (GeneID 36406) | 1 | 1.02e5 | 3654 | inactive |
| Slbp (GeneID 43448) | 1 | 1.35e5 | 6999 | inactive |
| Pex11ab (GeneID 36758) | 1 | 1.26e5 | 4769 | inactive |
| CG42404 (GeneID 41842) | 1 | 1.35e5 | 5150 | inactive |
| CG15483 (GeneID 34687) | 1 | 95969 | 3934 | inactive |
| capu (GeneID 33611) | 1 | 1.33e5 | 5519 | inactive |
| capu (GeneID 33611) | 2 | 1.32e5 | 5518 | inactive |

Further entries follow:
| target gene | reagent | E2F firefly, rep 1 | Renilla normaliser, rep 1 | outcome |
| --- | --- | --- | --- | --- |
| CG2233 (GeneID 31721) | 1 | 7822 | 792 | inactive |
| CG2202 (GeneID 32014) | 1 | 71190 | 768 | inactive |
| fal (GeneID 43927) | 1 | 68947 | 3050 | inactive |
| CG13720 (GeneID 38557) | 1 | 1.01e5 | 4007 | inactive |
| Ns3 (GeneID 31097) | 1 | 1769 | 1096 | inactive |
| Der-2 (GeneID 42005) | 1 | 91853 | 5056 | inactive |
| CG15199 (GeneID 32051) | 1 | 1.25e5 | 6255 | inactive |
| CHES-1-like (GeneID 31678) | 1 | 48998 | 3606 | inactive |
| Send2 (GeneID 34836) | 1 | 1.07e5 | 4303 | inactive |
| CG14551 (GeneID 43171) | 1 | 1.02e5 | 5537 | inactive |
| NijA (GeneID 39215) | 1 | 1.28e5 | 7195 | inactive |
| CG14410 (GeneID 32409) | 1 | 1.08e5 | 5277 | inactive |
| His2B:CG33870 + His2B:CG33868 + His2B:CG33882 + 21 more | 1 | 74774 | 4271 | inactive |
| mgl (GeneID 8674055) | 1 | 1.24e5 | 5371 | inactive |
| mgl (GeneID 8674055) | 2 | 7686 | 836 | inactive |
| mgl (GeneID 8674055) | 3 | 1.32e5 | 6223 | inactive |
| mgl (GeneID 8674055) | 4 | 1.24e5 | 6476 | inactive |
| sosie (GeneID 42961) | 1 | 1.04e5 | 5733 | inactive |
| CG30203 (GeneID 246514) | 1 | 87103 | 3941 | inactive |
| CG34345 (GeneID 5740402) | 1 | 1.52e5 | 5445 | inactive |
| mab-21 (GeneID 44127) | 1 | 1.22e5 | 6266 | inactive |
| CG31087 (GeneID 43062) | 1 | 87438 | 4546 | inactive |
| LpR1 (GeneID 2768687) | 1 | 1732 | 1036 | inactive |
| LpR1 (GeneID 2768687) | 2 | 1.22e5 | 6269 | inactive |
| LpR1 (GeneID 2768687) | 3 | 1.19e5 | 6126 | inactive |
| CG12499 (GeneID 42637) | 1 | 79897 | 4985 | inactive |
| CG16976 (retired record) (GeneID 38336) | 1 | 77669 | 3188 | inactive |
| CG16976 (retired record) (GeneID 38336) | 2 | 96268 | 4207 | inactive |
| CG4716 (GeneID 36471) | 1 | 2946 | 193 | inactive |
| CG15198 (GeneID 32065) | 1 | 1.21e5 | 5869 | inactive |
| Vha14-2 (GeneID 40748) | 1 | 1.31e5 | 6880 | inactive |
| vnc + CG42455 | 1 | 77183 | 3610 | inactive |
| SkpB (GeneID 36298) | 1 | 1.03e5 | 4062 | inactive |
| CG9360 (GeneID 32128) | 1 | 32965 | 3268 | inactive |
| CG32199 (GeneID 40028) | 1 | 1.67e5 | 8160 | inactive |
| Dera (GeneID 36358) | 1 | 2653 | 208 | inactive |
| D19B (GeneID 38717) | 1 | 78407 | 3417 | inactive |
| CG31495 (GeneID 261626) | 1 | 1.16e5 | 6246 | inactive |
| BomT3 (GeneID 42598) | 1 | 89061 | 2640 | inactive |
| BomT3 (GeneID 42598) | 2 | 1.27e5 | 7645 | inactive |
| geko (GeneID 50263) | 1 | 1.54e5 | 9070 | inactive |
| geko (GeneID 50263) | 2 | 1.71e5 | 8857 | inactive |
| CG13999 (GeneID 33826) | 1 | 1.51e5 | 5337 | inactive |
| Rpt3R (GeneID 41190) | 1 | 99209 | 7437 | inactive |
| Lcp4 (GeneID 35820) | 1 | 1.41e5 | 4778 | inactive |
| Tcs5 (GeneID 38600) | 1 | 92292 | 4013 | inactive |
